Experimental findings from patent US20100028335A1 are described below.

Amino acid sequences for entries named in this document (tags omitted). Residues count along the entry.
UniProt O75581, residues 20-1613: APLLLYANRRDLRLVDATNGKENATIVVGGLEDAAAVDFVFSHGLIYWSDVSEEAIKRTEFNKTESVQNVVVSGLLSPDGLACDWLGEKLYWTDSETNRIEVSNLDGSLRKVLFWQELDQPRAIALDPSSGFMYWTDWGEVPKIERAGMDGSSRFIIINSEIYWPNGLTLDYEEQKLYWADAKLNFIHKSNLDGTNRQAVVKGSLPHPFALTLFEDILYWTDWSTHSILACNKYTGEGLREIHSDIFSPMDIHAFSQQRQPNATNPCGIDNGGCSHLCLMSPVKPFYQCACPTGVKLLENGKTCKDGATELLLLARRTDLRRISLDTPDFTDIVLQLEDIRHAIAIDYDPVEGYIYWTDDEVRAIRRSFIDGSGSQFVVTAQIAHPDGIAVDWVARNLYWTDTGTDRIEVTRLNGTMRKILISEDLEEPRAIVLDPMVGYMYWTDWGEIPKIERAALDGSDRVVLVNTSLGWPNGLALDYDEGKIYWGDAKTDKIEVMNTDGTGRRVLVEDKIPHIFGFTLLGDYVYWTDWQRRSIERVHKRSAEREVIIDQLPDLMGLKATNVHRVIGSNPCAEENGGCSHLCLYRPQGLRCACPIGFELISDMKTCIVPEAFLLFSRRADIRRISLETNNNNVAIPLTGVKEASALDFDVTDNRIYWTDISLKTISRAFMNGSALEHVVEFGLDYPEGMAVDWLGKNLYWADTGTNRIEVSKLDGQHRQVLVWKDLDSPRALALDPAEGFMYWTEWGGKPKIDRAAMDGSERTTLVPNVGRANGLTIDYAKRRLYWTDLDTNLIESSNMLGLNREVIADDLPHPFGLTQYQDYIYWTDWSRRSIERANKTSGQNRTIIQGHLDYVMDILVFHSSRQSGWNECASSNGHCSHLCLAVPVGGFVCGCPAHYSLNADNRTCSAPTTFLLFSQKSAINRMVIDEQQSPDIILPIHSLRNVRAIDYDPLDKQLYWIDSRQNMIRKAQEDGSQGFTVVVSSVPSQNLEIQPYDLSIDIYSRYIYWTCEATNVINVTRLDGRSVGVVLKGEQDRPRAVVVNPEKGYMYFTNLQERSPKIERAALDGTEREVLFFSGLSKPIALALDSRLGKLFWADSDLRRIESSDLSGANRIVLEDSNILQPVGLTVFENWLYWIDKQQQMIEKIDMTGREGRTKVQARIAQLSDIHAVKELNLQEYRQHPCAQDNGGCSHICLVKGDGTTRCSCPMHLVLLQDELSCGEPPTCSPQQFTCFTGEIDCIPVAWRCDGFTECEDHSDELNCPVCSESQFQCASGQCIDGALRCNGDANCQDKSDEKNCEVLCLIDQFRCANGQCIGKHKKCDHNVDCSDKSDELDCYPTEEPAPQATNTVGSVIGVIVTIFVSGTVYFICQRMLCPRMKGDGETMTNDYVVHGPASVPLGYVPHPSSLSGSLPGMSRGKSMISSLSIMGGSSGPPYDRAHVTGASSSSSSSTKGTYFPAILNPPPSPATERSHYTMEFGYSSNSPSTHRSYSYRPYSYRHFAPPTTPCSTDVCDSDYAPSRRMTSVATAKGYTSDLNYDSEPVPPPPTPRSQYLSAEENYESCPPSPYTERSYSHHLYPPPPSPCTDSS
UniProt Q9BQB4, residues 24-213: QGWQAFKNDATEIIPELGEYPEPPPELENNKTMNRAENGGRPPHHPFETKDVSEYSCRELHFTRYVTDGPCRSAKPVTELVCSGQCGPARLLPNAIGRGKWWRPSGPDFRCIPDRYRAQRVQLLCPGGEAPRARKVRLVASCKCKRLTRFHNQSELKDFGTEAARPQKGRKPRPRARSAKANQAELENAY

These are yes or no findings as the source states them, for the method shown. In cells and extracts the contact can be indirect. Some entries that bind do so weakly or less than the wild type.

Test [1] deals with Low-density lipoprotein receptor-related protein 6 (LRP6) (Human) (UniProt O75581). Put plainly: TAP, LC-MS/MS.
Test [2] shares this target. Put plainly: TAP, LC-MS/MS; Hek293 and UMR106 membrane fraction.

Take “TAP-tagged sclerostin (N- or C-terminally tagged, construct not distinguished where told) (from UniProt Q9BQB4 24-213) (ligand)”: the binding result in test [1] and in test [2] was “binds” each time.
